# Results as given in patent US20030040612A1 (MOUNT SINAI SCHOOL OF MEDICINE, published 2003).
# B1: truncated SNT-1 PTB domain lacking the β8 region (residues 2-111), GAL4 AD fusion (other, not shown: large carriers; small tags and cut ends)
# chain: GSCCSCPDKDTVPDNHRNKFKVINVDDDGNELGSGIMELTDTELILYTRKRDSVKWHYLCLRRYGYDSNLFSFESGRRCQTGQGIFAFKCARAEELFNMLQEIMQNNSIN
# notes: Yeast two-hybrid construct; also called SNT-1 PTB domain protein lacking the β8 strand
# Target: tyrosine-phosphorylated TRKB
# Experiment: yeast two-hybrid
binder,measurement,value
B1,binding,binds

# These are yes or no findings as the source states them, for the method shown. Binding calls can cover weak binding; strength is not graded here. Tags and fused reporters may be left off the sequences shown.
